Like-named read-outs stand apart in the source and are kept apart here. No constants are given. Whether binding was seen depends on the method and setting. In cells and extracts the contact can be indirect. Some results given as binding are weak or reduced against the parent protein; the word gives no strength.
T1: KIFC3 (mouse (endogenous in ovaries)) (UniProt O35231)
T1 sequence: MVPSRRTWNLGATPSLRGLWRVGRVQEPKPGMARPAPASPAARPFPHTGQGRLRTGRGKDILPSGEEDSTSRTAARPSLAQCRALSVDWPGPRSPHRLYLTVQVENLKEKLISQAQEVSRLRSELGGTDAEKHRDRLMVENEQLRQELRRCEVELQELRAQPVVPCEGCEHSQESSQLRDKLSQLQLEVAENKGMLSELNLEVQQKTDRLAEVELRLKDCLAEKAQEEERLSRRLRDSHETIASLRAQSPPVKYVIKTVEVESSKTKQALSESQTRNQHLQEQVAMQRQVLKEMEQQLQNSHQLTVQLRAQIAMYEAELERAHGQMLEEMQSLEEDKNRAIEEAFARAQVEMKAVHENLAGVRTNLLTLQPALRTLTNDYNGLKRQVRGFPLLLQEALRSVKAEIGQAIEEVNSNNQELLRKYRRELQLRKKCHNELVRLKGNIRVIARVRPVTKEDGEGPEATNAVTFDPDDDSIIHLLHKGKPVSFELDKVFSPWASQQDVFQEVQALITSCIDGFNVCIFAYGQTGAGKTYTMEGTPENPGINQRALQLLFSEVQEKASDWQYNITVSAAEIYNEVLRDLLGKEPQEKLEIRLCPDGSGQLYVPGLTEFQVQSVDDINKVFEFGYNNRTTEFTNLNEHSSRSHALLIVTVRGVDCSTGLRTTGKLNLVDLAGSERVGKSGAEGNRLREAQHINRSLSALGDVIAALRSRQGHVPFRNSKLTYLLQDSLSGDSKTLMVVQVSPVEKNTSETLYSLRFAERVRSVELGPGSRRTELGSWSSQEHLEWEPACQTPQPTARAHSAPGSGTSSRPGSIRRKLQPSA

Sequences of proteins named here, by UniProt entry; tags and fusion partners are left off.
UniProt Q9WVA3: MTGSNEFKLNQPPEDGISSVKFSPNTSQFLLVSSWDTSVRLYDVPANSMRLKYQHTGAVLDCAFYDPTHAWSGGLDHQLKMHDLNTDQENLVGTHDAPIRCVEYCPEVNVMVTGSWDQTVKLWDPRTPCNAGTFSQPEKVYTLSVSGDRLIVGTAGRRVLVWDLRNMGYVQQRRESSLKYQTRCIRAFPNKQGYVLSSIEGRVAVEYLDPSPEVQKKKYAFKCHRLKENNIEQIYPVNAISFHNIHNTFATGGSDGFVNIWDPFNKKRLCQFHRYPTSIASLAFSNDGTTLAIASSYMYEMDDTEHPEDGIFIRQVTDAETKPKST

B1: PRC1 (protein, UniProt Q99K43 1-603)
chain: MRRSEVLADESITCLQKALTHLREIWELIGIPEEQRLQRTEVVKKHIKDLLDRMIAEEESLRERLLKSISICQKELSTLCSELQVKPFQEEKDTTILQLEKDLRTQVELMRKQKKERKQELKLLQEQEQELRDILCMPPCDVDSTSVPTLEELKLFRQRVATLRETKESRREEFVNIKKQIILCMEELEHSPDTSFERDVVCEDESAFCLSLENIATLQKLLKQLEMKKSQNEAECEGLRTQIRELWDRLQIPEEEREPVEAIMTGSKTKIRNALKLEVDRLEELKMQNIKQVIEKIRVELAQFWDQCFYSQEQRQAFAPYYSEDYTENLLHLHDAEIVRLRNYYDVHKELFQGVQKWEESWKLFLEFERKASDPGRFTNRGGNLLKEEKERAKLQKTLPKLEEELKARIEQWEQEHSTAFVVNGQKFMEYVTEQWELHRLEKERAKQERQLKNKKQTEAEMLYGSTPRTPSKRPGQTPKKSGKMNTTTMSSATPNSSIRPVFGGSVYRSPMSRLPPSGSKSVVTSLCSGKKTPRAAQLRANKENLDLNGSILSGGYPGSTPLQHNCSIKSVASTYSEFSRELSKASRSDATSRILNSTNIQS

Legend:
[1] = target: T1, KIFC3 (mouse (endogenous in ovaries)); assay: co-IP; anti-KIFC3 antibody on Dynabeads Protein G, supernatant of lysate of 10 mouse ovaries, overnight at 4 °C; IgG as control antibody; precipitates analysed by western blotting
[2] = target: T1, KIFC3 (mouse (endogenous in ovaries)); assay: as above; remark: listed apart in the source

Molecule | binding [1] | binding [2]
Bub3 (from UniProt Q9WVA3 1-326) | binds | 
B1 |  | binds

Reference: PMC10979585
